According to patent US20080070791A1 (ZEPHYR PROTEOMIX, published 2008):
These are yes or no findings as the source states them, for the method shown. Some binding calls cover weakened binding; strength is not graded here.

Sequences of proteins named here, by UniProt entry; tags and fusion partners are left off. A change or cut given only in a name is not applied to a line headed by its entry.
UniProt P13612: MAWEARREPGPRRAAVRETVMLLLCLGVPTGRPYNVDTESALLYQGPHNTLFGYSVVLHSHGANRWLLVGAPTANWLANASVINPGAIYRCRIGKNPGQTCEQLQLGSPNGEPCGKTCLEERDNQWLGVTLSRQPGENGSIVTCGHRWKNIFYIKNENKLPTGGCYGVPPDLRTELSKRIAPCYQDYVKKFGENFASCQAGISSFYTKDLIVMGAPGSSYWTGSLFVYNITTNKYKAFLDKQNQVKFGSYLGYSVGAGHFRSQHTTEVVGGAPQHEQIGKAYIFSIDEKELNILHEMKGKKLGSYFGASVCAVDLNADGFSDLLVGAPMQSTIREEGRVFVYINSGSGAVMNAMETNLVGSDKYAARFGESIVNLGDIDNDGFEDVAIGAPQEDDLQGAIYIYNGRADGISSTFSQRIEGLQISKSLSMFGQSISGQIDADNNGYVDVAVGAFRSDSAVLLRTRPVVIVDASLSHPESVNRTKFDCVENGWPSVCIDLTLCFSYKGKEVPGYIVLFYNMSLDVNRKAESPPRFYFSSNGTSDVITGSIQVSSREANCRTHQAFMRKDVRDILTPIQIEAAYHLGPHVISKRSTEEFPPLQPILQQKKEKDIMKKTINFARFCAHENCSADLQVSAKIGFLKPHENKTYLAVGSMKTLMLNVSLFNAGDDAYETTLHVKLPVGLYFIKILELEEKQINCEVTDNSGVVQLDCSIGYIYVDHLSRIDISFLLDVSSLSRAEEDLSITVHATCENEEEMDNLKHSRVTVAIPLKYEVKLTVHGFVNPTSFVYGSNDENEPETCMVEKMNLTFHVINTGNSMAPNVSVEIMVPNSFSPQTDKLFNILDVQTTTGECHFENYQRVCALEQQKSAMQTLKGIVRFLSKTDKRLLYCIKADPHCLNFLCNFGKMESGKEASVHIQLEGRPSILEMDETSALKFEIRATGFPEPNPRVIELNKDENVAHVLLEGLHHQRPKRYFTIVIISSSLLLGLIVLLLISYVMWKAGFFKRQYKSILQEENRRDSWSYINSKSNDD
UniProt Q06851: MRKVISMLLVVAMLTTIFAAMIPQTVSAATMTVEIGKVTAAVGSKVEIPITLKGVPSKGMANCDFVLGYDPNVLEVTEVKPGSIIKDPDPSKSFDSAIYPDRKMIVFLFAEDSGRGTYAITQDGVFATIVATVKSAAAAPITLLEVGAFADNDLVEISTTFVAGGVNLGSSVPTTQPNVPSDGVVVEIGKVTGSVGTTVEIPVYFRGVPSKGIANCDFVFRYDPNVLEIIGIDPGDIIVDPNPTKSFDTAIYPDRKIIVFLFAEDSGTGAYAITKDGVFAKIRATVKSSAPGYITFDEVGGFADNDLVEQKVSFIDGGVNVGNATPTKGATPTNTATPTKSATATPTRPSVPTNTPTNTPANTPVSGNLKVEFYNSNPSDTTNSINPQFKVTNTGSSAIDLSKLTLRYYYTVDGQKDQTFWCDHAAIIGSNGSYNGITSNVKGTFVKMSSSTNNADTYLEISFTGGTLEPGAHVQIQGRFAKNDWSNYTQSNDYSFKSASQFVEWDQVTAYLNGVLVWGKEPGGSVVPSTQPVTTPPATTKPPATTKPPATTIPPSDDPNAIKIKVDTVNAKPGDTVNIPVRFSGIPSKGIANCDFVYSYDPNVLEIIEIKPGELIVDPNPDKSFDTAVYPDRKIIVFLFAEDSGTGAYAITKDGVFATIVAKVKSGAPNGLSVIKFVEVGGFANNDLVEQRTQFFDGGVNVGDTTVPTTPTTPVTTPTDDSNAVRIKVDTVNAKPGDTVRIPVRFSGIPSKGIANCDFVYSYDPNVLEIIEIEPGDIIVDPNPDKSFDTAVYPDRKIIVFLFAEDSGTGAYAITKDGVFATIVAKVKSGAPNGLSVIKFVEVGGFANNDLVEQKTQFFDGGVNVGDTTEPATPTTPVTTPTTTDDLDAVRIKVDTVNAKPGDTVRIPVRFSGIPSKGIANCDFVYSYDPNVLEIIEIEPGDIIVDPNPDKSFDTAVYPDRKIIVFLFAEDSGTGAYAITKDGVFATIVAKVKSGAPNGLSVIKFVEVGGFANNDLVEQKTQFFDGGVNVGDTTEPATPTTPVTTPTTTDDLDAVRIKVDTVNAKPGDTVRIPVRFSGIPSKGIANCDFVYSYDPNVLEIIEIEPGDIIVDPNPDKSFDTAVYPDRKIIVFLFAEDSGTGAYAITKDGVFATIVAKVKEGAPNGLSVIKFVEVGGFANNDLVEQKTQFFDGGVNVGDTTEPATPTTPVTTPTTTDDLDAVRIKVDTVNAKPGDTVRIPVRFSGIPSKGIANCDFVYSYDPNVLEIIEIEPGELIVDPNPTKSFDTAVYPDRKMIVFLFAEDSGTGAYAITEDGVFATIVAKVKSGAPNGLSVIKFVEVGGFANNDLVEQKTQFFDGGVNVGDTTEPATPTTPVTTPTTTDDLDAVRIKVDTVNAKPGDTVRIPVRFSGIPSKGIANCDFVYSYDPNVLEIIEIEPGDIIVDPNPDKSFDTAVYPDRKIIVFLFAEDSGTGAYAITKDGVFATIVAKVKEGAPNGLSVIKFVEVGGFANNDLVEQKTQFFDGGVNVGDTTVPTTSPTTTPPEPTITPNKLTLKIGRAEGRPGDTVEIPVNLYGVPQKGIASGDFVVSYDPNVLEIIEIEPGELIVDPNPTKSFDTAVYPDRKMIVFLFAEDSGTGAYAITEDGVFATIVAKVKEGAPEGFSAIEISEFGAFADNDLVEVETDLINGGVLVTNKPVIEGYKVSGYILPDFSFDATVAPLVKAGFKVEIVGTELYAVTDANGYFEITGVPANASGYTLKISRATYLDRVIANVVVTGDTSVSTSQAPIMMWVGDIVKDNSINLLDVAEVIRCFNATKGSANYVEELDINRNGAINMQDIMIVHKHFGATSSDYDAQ

Target: T1, α4β1 integrin expressed on Jurkat cells (human, UniProt P13612 34-1032; P05556 21-798)
T1 construct: whole, on cells; Fluorescence-labeled Jurkat cells applied to the microarray; also called receptor recognizing the CS1 peptide
Experiment: cell adhesion of labeled Jurkat cells on microarray

binding: binds
Substance: ZEPHYRIN-CS1 (from UniProt Q06851 361-527)
